Measured values reported in doi:10.1101/2024.08.22.609269.
These are yes or no findings as the source states them, for the method shown. In cells and extracts the contact can be indirect. Some entries that bind do so weakly or less than the wild type.

Amino acid sequences for entries named in this document (tags omitted). Residues count along the entry.
UniProt P35968, residues 20-1356: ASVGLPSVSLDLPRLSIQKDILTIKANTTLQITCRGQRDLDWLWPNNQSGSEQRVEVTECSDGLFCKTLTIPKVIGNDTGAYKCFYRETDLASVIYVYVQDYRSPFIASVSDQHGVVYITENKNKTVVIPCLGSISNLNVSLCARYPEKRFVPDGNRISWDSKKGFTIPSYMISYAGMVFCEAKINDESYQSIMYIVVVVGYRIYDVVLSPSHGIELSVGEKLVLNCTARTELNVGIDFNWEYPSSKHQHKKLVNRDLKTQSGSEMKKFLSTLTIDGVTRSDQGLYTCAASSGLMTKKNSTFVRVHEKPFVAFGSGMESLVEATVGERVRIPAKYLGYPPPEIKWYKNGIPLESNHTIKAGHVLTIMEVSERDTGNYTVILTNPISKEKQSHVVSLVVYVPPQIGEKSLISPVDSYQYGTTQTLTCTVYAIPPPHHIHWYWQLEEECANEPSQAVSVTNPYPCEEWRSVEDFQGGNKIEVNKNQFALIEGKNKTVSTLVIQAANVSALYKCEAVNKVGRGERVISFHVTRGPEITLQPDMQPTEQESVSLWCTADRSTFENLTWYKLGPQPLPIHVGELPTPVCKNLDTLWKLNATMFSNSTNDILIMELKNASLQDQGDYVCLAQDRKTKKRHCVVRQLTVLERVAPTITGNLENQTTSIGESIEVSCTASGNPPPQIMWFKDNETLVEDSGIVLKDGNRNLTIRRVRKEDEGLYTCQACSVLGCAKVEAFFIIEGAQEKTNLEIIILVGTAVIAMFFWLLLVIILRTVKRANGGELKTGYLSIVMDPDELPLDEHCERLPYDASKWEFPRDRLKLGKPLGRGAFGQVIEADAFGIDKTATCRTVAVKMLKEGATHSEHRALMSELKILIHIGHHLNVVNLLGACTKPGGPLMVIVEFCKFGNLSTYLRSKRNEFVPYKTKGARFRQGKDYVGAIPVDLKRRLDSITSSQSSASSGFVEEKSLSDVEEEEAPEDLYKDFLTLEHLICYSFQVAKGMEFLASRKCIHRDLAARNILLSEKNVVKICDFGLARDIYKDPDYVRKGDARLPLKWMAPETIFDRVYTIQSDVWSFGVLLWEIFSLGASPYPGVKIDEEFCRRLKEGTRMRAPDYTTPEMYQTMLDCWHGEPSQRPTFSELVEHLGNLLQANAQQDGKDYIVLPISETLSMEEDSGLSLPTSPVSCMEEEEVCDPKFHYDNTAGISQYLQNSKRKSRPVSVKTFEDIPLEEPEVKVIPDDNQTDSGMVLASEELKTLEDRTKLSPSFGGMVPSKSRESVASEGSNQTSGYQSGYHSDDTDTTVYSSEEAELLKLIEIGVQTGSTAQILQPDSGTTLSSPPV

Experiments:
[1] = biological target: T1, FITC-traC synthetic peptide (human); test: co-IP
T1 sequence (peptide, [FITC][Ahx] on the N-terminus; C-terminal [COOH]): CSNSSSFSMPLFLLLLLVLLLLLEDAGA

[2] = biological target: VEGFR2, endogenous in HUVEC (human (endogenous in HUVEC)) (UniProt P35968); test: co-IP

PDGFRβ (platelet-derived growth factor receptor beta), endogenous in HUVEC (from UniProt P09619 33-1106)
binding [1]: no binding

VEGFR2, endogenous in HUVEC (from UniProt P35968 20-1356) (receptor)
binding [1]: binds

B1: T cell protein tyrosine phosphatase (TCPTP), endogenous in HUVEC (enzyme, UniProt P17706 1-415)
chain: MPTTIEREFEELDTQRRWQPLYLEIRNESHDYPHRVAKFPENRNRNRYRDVSPYDHSRVKLQNAENDYINASLVDIEEAQRSYILTQGPLPNTCCHFWLMVWQQKTKAVVMLNRIVEKESVKCAQYWPTDDQEMLFKETGFSVKLLSEDVKSYYTVHLLQLENINSGETRTISHFHYTTWPDFGVPESPASFLNFLFKVRESGSLNPDHGPAVIHCSAGIGRSGTFSLVDTCLVLMEKGDDINIKQVLLNMRKYRMGLIQTPDQLRFSYMAIIEGAKCIKGDSSIQKRWKELSKEDLSPAFDHSPNKIMTEKYNGNRIGLEEEKLTGDRCTGLSSKMQDTMEENSESALRKRIREDRKATTAQKVQQMKQRLNENERKRKRWLYWQPILTKMGFMSVILVGAFVGWTLFFQQNAL
binding [2]: binds
